No constants are given. Whether binding was seen depends on the method and setting. In cells and extracts the contact can be indirect. Binding can be weak; no strength is given. Where a sequence is shown, tags or fusion partners need not be part of it.

In this experiment the target is FLAG-PPP1R21 CT (C-terminal truncation of PPP1R21) (human). Description: co-IP; HEK293T cells cotransfected with full-length or truncated FLAG-PPP1R21 along with Myc-PP1cs and HA-AEG-1 for 48 h; whole-cell lysates (0.5% CHAPS lysis buffer); IP with the anti-FLAG antibody; immunoblotting with anti-Myc and anti-HA. On the technique in general: In western blotting, separated proteins are transferred to a membrane and probed.

B1: HA-AEG-1 WT (astrocyte elevated gene-1, HA-tagged) (protein, UniProt Q86UE4 1-582)
chain: MAARSWQDELAQQAEEGSARLREMLSVGLGFLRTELGLDLGLEPKRYPGWVILVGTGALGLLLLFLLGYGWAAACAGARKKRRSPPRKREEAAAVPAAAPDDLALLKNLRSEEQKKKNRKKLSEKPKPNGRTVEVAEGEAVRTPQSVTAKQPPEIDKKNEKSKKNKKKSKSDAKAVQNSSRHDGKEVDEGAWETKISHREKRQQRKRDKVLTDSGSLDSTIPGIENTITVTTEQLTTASFPVGSKKNKGDSHLNVQVSNFKSGKGDSTLQVSSGLNENLTVNGGGWNEKSVKLSSQISAGEEKWNSVSPASAGKRKTEPSAWSQDTGDANTNGKDWGRSWSDRSIFSGIGSTAEPVSQSTTSDYQWDVSRNQPYIDDEWSGLNGLSSADPNSDWNAPAEEWGNWVDEERASLLKSQEPIPDDQKVSDDDKEKGEGALPTGKSKKKKKKKKKQGEDNSTAQDTEELEKEIREDLPVNTSKTRPKQEKAFSLKTISTSDPAEVLVKNSQPIKTLPPATSTEPSVILSKSDSDKSSSQVPPILQETDKSKSNTKQNSVPPSQTKSETSWESPKQIKKKKKARRET
As for B1, the binding result is on record as “binds”.

The values are drawn from article PMC12519287.
